Measured values reported in article doi:10.1101/2021.12.22.473884.
No constants are given. Whether binding was seen depends on the method and setting. In cells and extracts the contact can be indirect. Some binding calls cover weakened binding; strength is not graded here. Sequences can lack the tags named with a protein.

Columns and labels:
Flag-Fbxo7 L250P (human) = target: T1, Flag-Fbxo7 L250P (human) (UniProt Q9Y3I1); assay: co-IP
T1 sequence: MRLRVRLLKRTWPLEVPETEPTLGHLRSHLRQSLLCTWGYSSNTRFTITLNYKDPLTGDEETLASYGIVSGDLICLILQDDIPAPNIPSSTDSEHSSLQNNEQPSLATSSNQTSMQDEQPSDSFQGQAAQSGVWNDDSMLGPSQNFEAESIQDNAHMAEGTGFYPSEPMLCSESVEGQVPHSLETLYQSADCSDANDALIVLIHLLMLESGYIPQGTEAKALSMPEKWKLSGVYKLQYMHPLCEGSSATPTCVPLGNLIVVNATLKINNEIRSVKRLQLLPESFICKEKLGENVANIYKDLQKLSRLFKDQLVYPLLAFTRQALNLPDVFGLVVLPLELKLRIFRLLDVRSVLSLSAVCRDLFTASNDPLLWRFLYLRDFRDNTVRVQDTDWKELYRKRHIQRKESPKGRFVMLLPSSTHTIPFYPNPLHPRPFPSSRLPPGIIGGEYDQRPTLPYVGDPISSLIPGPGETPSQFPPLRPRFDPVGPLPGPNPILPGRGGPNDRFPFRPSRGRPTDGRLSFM

Fbxo7 T22M (human) = target: T2, Fbxo7 T22M (human) (UniProt Q9Y3I1); assay: co-IP
T2 sequence: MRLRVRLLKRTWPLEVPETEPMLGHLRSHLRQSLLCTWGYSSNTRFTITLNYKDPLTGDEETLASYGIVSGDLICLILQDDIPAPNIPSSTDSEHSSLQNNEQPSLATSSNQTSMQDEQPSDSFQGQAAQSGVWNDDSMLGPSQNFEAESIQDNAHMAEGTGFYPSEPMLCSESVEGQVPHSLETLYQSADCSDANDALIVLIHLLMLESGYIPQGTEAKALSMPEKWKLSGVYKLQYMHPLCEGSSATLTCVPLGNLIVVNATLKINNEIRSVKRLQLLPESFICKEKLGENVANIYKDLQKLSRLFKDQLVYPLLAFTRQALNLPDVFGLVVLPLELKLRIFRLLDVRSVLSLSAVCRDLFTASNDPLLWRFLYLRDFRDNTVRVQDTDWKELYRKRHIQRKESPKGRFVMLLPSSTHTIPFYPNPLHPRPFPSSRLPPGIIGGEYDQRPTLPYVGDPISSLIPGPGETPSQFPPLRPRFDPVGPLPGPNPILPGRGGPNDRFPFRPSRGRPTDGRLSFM

binding (Flag-Fbxo7 L250P (human)): binds
binding (Fbxo7 T22M (human)): binds
B1: MiD49-Myc (protein, UniProt Q96C03 1-454)
chain: MAEFSQKRGKRRSDEGLGSMVDFLLANARLVLGVGGAAVLGIATLAVKRFIDRATSPRDEDDTKADSWKELSLLKATPHLQPRPPPAALSQPVLPLAPSSSAPEGPAETDPEVTPQLSSPAPLCLTLQERLLAFERDRVTIPAAQVALAKQLAGDIALELQAYFRSKFPELPFGAFVPGGPLYDGLQAGAADHVRLLVPLVLEPGLWSLVPGVDTVARDPRCWAVRRTQLEFCPRGSSPWDRFLVGGYLSSRVLLELLRKALAASVNWPAIGSLLGCLIRPSMASEELLLEVQHERLELTVAVLVAVPGVDADDRLLLAWPLEGLAGNLWLQDLYPVEAARLRALDDHDAGTRRRLLLLLCAVCRGCSALGQLGRGHLTQVVLRLGEDNVDWTEEALGERFLQALELLIGSLEQASLPCHFNPSVNLFSSLREEEIDDIGYALYSGLQEPEGLL
